Reference: patent publication US6806267B1, “Apoptosis-inducing compounds” (priority 1998, dated 2004)
Some entries share one result that the patent states for a list of compounds.

Tested on: CML cell lines K562, KYO.1 and Lama 84
Assay: Apoptosis in CML cell lines, cytospin and staining
Assay type: cell-based, human
Details: 10 μM, 16 hour treatment

CC(=O)OC1=C(c2ccccc2)Oc2cc3ccccc3cc2-n2cccc21 [PBOX-3, 4-Acetoxy-5-phenylnaphto[2,3-b]pyrrolo[1,2-d][1,4]oxazepine]
apoptosis: up to 50%

CC(=O)OC1=C(c2cccc3ccccc23)Oc2ccccc2-n2cccc21 [PBOX-4, 7-Acetoxy-6-(1-naphthyl)pyrrolo[2,1-d][1,5]benzoxazepine]
apoptosis: up to 50%
